PubChem BioAssay AID2685 (National Center for Advancing Translational Sciences (NCATS), 2010)
Out of some 320,000 compounds screened, about 2,100 (0.66%) were called active. Inconclusive results, whose numbers are uncertain, are shown with a selection of clear calls. The call rests on the fitted dose curve; in most records, active means well fitted inhibition curve with a large enough effect in the signal ratio, with a control signal flat (not every such curve was filed as active); inconclusive means small, poorly fitted or top-dose-only effect, or effect the other way, or a change in a side signal; inactive means flat fitted curve, though single readings scatter; the % refers to the signal ratio. Potencies beside an inconclusive call are fits to weak or partial responses and may not hold up.

Test: qHTS Assay for Lipid Storage Modulators in Drosophila S3 Cells
Settings: BODIPY lipid droplet fluorescence, 18-24 h, cells fed with added oleic acid; lipid storage change, negative = inhibition: at 46.1 µM (top of the series) unless noted
How it was run: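 Drosophila S3 cells got compounds at several concentrations plus oleic acid (400 uM solution). Laser-scanning cytometry with 488 nm excitation read lipid droplets at 500-530 nm and cells at 575-640 nm. Percent activity was relative to 20 uM Triacsin C.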
On the % scale 0 is the no-effect control and ±100 the full control effect; potency means the concentration at half of the fitted maximal effect.

Compound | Potency | lipid storage change, negative = inhibition
CCOc1cc(/C=C2/C(=N)N3N=C(C)SC3=NC2=O)ccc1OS(=O)(=O)c1ccc(C)cc1 | inconclusive: 0.291 µM [activator, single point] | –
CC(c1ccco1)N(C(=O)c1ccc(C(F)(F)F)cc1)c1ccccn1 (stereo unspecified) | – | inconclusive: -3.01%
CCOC(=O)c1c(C)[nH]c(C(=O)OCC(=O)NCc2ccc(OC)c(OC)c2)c1C | inconclusive: 29.1 µM [falling, single point] | –
COc1cc(OC)c(C2C(C(=O)Nc3ccc(C)cc3C)=C(C)Nc3ncnn32)cc1OC (stereo unspecified) | – | inconclusive: -8.41%
O=C(NC1CCCC1)C1CC(=O)N(c2ccc(F)c(Cl)c2)C1 (stereo unspecified) | – | inconclusive: 39.1%
COc1ccccc1C1=NNC(=NCc2ccccc2)SC1 | – | inconclusive: -37.7%
CCOc1ccc(S(=O)(=O)N2CCC(C(=O)NCC3CCCO3)CC2)cc1C (stereo unspecified) | – | inconclusive: 189%
O=C(COc1ccccc1)NCc1ccccc1 | – | inactive
Cc1cc(C)c(C#N)c(SCc2ccc(C(=O)O)cc2)n1 | inconclusive: 5.8 µM [activator, partial curve] | –
CCCCC[C@H]1CN(Cc2ccccc2)C(=O)[C@@H]1CC(=O)NCc1ccccc1 | – | inconclusive: -3.24%
COc1ccc(C(=O)NC(C)CCc2ccccc2)cc1[N+](=O)[O-] (stereo unspecified) | inconclusive: 20.6 µM [falling, single point] | –
O=[N+]([O-])c1cccc(-c2n[nH]c(=S)n2-c2ccccc2)c1 | – | inconclusive: 21.5%
Cc1ccc(O)c(NC(=O)C2CCCN2C(=O)OCc2ccccc2)c1 (stereo unspecified) | inconclusive: 7.31 µM [activator, partial curve] | –
Cc1c(O)ccc2c(-c3ccccc3)cc(=O)oc12 | – | inconclusive: 12.4%
O=C(NCc1ccco1)c1ccc(S(=O)(=O)N2CCCCCC2)cc1 | – | inconclusive: -37.9%
Cc1ccc(S(=O)(=O)N(C)/C(=N/S(=O)(=O)c2ccccc2)c2ccccc2)cc1 | – | inconclusive: 25.9%
CCC(C)(C)NC(=O)C(c1ccc(OC)cc1)N(C(=O)CCC(=O)Nc1cc(C)on1)c1ccc(OC)cc1OC (stereo unspecified) | inconclusive: 0.58 µM [falling, single point] | –
Cc1nn2c(N3CCCC3)cc(C(C)C)nc2c1-c1ccccc1 | – | inconclusive: -5.96%
O=C(O)Cc1ccc(NS(=O)(=O)c2ccccc2Cl)cc1 | – | inconclusive: 36.8%
O=[N+]([O-])c1cccc(CN2CCN(S(=O)(=O)Cc3ccccc3)CC2)c1 | inconclusive: 0.461 µM [falling, single point] | –
CCN(CC)S(=O)(=O)c1cccc(NC(=O)c2cccc(S(=O)(=O)N3CCCC3)c2)c1 | inconclusive: 0.058 µM [falling, full curve, poor fit] | –

Quoted from the listing.
CCOc1ccc(S(=O)(=O)N2CCC(C(=O)NCC3CCCO3)CC2)cc1C (stereo unspecified) | lipid storage change, negative = inhibition: inconclusive: 189%
O=C(NC1CCCC1)C1CC(=O)N(c2ccc(F)c(Cl)c2)C1 (stereo unspecified) | lipid storage change, negative = inhibition: inconclusive: 39.1%
